According to article PMC7378325:

Target: myc-GABAB1b
Experiment: co-IP; COS-7 cells triple transfected with myc-GABAB1a or myc-GABAB1b, HA-GABAB2 and fibulin-2-Flag; extract in PBS with 1% CHAPS, 25 mM Hepes, 150 mM NaCl, pH 7.4; IP with anti-myc or anti-flag, Western blot

binding: no binding
B1: Fibulin-2-Flag (protein, UniProt P37889 27-1221)
chain: VPWQDCTGAECPLLENCIEEALEPGACCATCVQQGCACEGYQYYDCVQGGFVDGRVPAGQSYFVDFGSTECSCPPGGGKISCQFMLCPELPPNCIEAVVVADSCPQCGQVGCVHSGRKYAAGHTVHLSSCRACHCPDAGGELICYQLPGCHGNFSDAEEGDSERQYEDPYSYDQEVAEAEATTAIVNEVQAGAEGPPAALGGGNLPPSSIRVTPWPVALPRPTAAAALGPPAPVQAKARRVTLDTEEDEEEEEEETLVTEPPTAGSPGRLDSLPTRSPARPGFPVQEKEAEAKAGPEENLIPDAQVTPRSVMQEGAAPLPRSGLAALSPSLATDSSSEDPVKPSDHPTLSTLPPDRAQVSPSPETPEEIPQHPQLLPRFRAEEDIDPNSVHSVPRGDLDGSTKDLIETCCAAGQQWAIDNDECQEIPENGAQSDICRIAQRQCCISYLKEKSCVAGVMGAKEGETCGAEDNDTCGVSLYKQCCDCCGLGLRVRAEGQSCESNPNLGYPCNHVMLSCCEGEEPLIVPEVRRPPEPEAAPRRVSEMEMASREALSLGTEAELPNSLPGDDQDECLMLPGELCQHLCINTVGSYRCACFPGFELQGDGRTCRPDRGAPQLDTARESAPRSESAQVSPNTIPLPVPQPNTCKDNGPCRQVCRVVGDTAMCSCFPGYAIMADGVSCEDQDECLMGTHDCSWKQFCVNTLGSFYCVNHTVLCAEGYILNAHRKCVDINECVTDLHTCTRAEHCVNTPGSFQCYKALTCEPGYVLTDGECTDVDECVTGTHNCQAGFSCQNTKGSFYCQARQRCMDGFLQDPEGNCVDINECTSLLEPCRSGFSCINTVGSYTCQRNPLVCGRGYHANEEGSECVDVNECETGVHRCGEGQLCYNLPGSYRCDCKPGFQRDAFGRTCIDVNECWVSPGRLCQHTCENTPGSYRCSCAAGFLLAADGKHCEDVNECETRRCSQECANIYGSYQCYCRQGYQLAEDGHTCTDIDECAQGAGILCTFRCVNVPGSYQCACPEQGYTMMANGRSCKDLDECALGTHNCSEAETCHNIQGSFRCLRFDCPPNYVRVSETKCERTTCQDITECQTSPARITHYQLNFQTGLLVPAHIFRIGPAPAFAGDTISLTITKGNEEGYFVTRRLNAYTGVVSLQRSVLEPRDFALDVEMKLWRQGSVTTFLAKMYIFFTTFAP

These are yes or no findings as the source states them, for the method shown. In cells and extracts the contact can be indirect. Where a sequence is shown, tags or fusion partners need not be part of it.
